Experimental data reported in US20260079169A1, “VOLATILE ORGANIC COMPOUNDS AS MARKERS FOR CELLULAR COMMUNICATION” (Technion Research and Development Foundation Limited, priority 2020, published 2026).

Experiments:
[1] = test system: A549, H1299, H1975 human lung cancer lines and BEAS-2B normal cell line, each cultured alone; test: VOCs headspace analysis (ITEX GC-MS) of mono-culture groups (Format-1), bulk cell samples 1×10^4 cells; assay type: cell-based; conditions: bulk 1 × 10^4 cell
[2] = test system: different-cell pairs of BEAS-2B, A549, H1299, H1975 without physical contact under a mutual headspace; test: VOCs headspace analysis (ITEX GC-MS) of different-cell pair co-culture headspace groups (Format-3), bulk cell samples; assay type: cell-based, human; conditions: bulk 1 × 10^4 cell

| SMILES | VOC level in headspace, area under curve (AUC) normalized by STD AUC ([1]; A (BEAS-2B) mono-culture) | VOC level in headspace, area under curve (AUC) normalized by STD AUC ([1]; B (A549) mono-culture) | VOC level in headspace, area under curve (AUC) normalized by STD AUC ([1]; C (H1299) mono-culture) | VOC level in headspace, area under curve (AUC) normalized by STD AUC ([1]; D (H1975) mono-culture) | VOC level in headspace, area under curve (AUC) normalized by STD AUC ([2]; A + B (BEAS-2B + A549)) | VOC level in headspace, area under curve (AUC) normalized by STD AUC ([2]; A + C (BEAS-2B + H1299)) | VOC level in headspace, area under curve (AUC) normalized by STD AUC ([2]; A + D (BEAS-2B + H1975)) | VOC level in headspace, area under curve (AUC) normalized by STD AUC ([2]; B + C (A549 + H1299)) | VOC level in headspace, area under curve (AUC) normalized by STD AUC ([2]; B + D (A549 + H1975)) | VOC level in headspace, area under curve (AUC) normalized by STD AUC ([2]; C + D (H1299 + H1975)) |
| --- | --- | --- | --- | --- | --- | --- | --- | --- | --- | --- |
| CCCC(C)C=O (centres unmarked) [VOC45] | 0 | 2.917 | 0 | 3.563 | 0 | 0 | 0 | 0 | 8.98 | 3.893 |
| OC1CCCCC1 [VOC46] | 0 | 2.39 | 0 | 0 | 0 | 4.977 | 0 | 5.209 | 1.815 | 0 |
| CC(C)C(C)C(C)(C)C (centres unmarked) [VOC47] | 5.014 | 0 | 2.3932 | 0 | 5.359 | 7.2 | 0 | 5.336 | 0 | 3.926 |
| CC(C)CCCC(=O)c1ccccc1 [VOC48] | 0 | 7.574 | 0 | 0 | 5.71 | 0 | 0 | 1.044 | 0.1633 | 0 |
| CCCC(C)(C)CC [VOC49] | 4.827 | 2.117 | 0 | 0 | 10.4895 | 2.131 | 3.063 | 1.761 | 2.403 | 0 |
| CCCCCCC(C)CC(C)C (centres unmarked) [VOC50] | 5.192 | 0 | 0 | 6.742 | 5.9098 | 2.114 | 3.944 | 0 | 2.036 | 1.308 |
| C/C=C/C(C)CCC (centres unmarked) [VOC51] | 0 | 4.305 | 6.2735 | 7.715 | 1.824 | 3.342 | 0 | 0 | 0 | 0 |
| CN(C)c1cc(C(=O)O)cc(C(=O)O)c1 [VOC52] | 4.471 | 0 | 3.7782 | 0 | 3.328 | 2.88 |  | 1.131 | 0 | 0 |
| C=CCOCCCC [VOC53] | 7.074 | 0 | 0 | 5.846 | 2.506 | 0 | 0 | 0 | 0 | 0.5618 |
| c1ccccc1 [VOC54] | 0 | 2.326 | 2.326 | 1.377 | 4.067 | 1.812 | 2.275 | 0 | 0 | 6.241 |
| CCCCC(CC)CO (centres unmarked) [VOC55] | 7.062 | 0 | 0 | 0 | 3.414 | 2.624 | 0 | 0 | 0 | 0 |
| CC(=O)CCOC(C)C [VOC56] | 0 | 0 | 0 | 6.66 | 0 | 0 | 3.587 | 0 | 1.635 | 0 |
| C#CF [VOC57] | 0 | 0 | 0 | 7.581 | 0 | 0 | 4.011 | 0 | 0 | 1.85 |
| O=C(O)CO [VOC58] | 0 | 6.95 | 8.49 | 0 | 1.771 | 3.826 | 0 | 8.161 | 0 | 0 |
| COC [VOC59] | 5.451 | 5.822 | 0 | 0 | 7.869 | 2.242 | 0 | 1.04 | 0 | 0 |
| CCCCCC(C)CCC(C)CC (centres unmarked) [VOC60] | 0 |  | 7.5739 | 5.675 | 0 | 3.113 | 0 | 2.263 | 0 | 7.462 |
